{"source": "PubChem BioAssay AID493014", "about": "(National Center for Advancing Translational Sciences (NCATS), 2011)", "note": "This is one part of the list. The main result of the screen is listed elsewhere. These columns were measured beside it and carry no call. The list favours compounds with an active or inconclusive main result. The note in brackets gives the kind of curve behind each potency; many fits are weak."}
{"experiment": "qHTS Assay to Find Inhibitors of Chronic Active B-Cell Receptor Signaling", "conditions": "ABC-DLBCL IkBa-CBG/CBR reporter, luminescence ratio (green luciferase fused to IkBa over red control in TMD8 lymphoma cells), 4 h; measured here: CBR red luminescence, cell number", "procedure,_shortened": "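Compounds up to 46 uM were incubated four hours with TMD8 cells whose green CBG68 luciferase is fused to IkappaBalpha; red CBR luminescence normalised the signal, and concentration-effect curves were fitted to fusion, red and ratio data.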"}
{"smiles": "CCOC(=O)c1c(NC(=O)c2cccs2)sc(CC)c1-c1cccs1", "AC50": "16.4 µM [rising, single point]"}
{"smiles": "COc1ccc(CCNC(=O)COC(=O)CCC(=O)c2ccc(F)cc2)cc1", "AC50": "35.5 µM [falling, partial curve, poor fit]"}
{"smiles": "O=C(c1cccs1)N1CCN(Cc2ccc3c(c2)OCO3)CC1", "AC50": "35.5 µM [falling, single point]"}
{"smiles": "CC(C)(C)OCC1CO1", "note": "(stereo not drawn)", "AC50": "25.9 µM [falling, partial curve]"}
{"smiles": "Clc1ccccc1CNc1ncnc2c1c(-c1ccccc1)cn2-c1ccccc1", "AC50": "1.58 µM [rising, partial curve, poor fit]"}
{"smiles": "COC(=O)C1=C(CN2CCc3ccccc32)NC(=O)NC1c1cc(C)ccc1C", "note": "(stereo not drawn)", "AC50": "14.6 µM [falling, partial curve]"}
{"smiles": "CCCNC(=O)c1ccc(N2CCC3(CC2)CC(c2cccc(Br)c2)=NO3)c(NC(=O)c2ccco2)c1", "AC50": "4.61 µM [rising, partial curve, poor fit]"}
{"smiles": "c1ccc2c(c1)CSc1sccc1C2=C1CCNCC1", "AC50": "29.1 µM [falling, single point]"}
{"smiles": "CCOC(=O)c1ccc(NC(=O)COc2ccccc2CNCCc2ccccc2)cc1", "AC50": "35.5 µM [falling, single point]"}
{"smiles": "Cc1ccc(Cl)cc1NC(=O)CN1C(=O)NC(C)(C2CC2)C1=O", "note": "(stereo not drawn)", "AC50": "20.6 µM [rising, partial curve, poor fit]"}
{"smiles": "O=C(CSCc1ccccc1Cl)NCCSc1ccccn1", "AC50": "11.2 µM [rising, single point]"}
{"smiles": "CN(c1ccc(F)cc1)S(=O)(=O)c1ccc(Cl)c(C(=O)NCC(c2ccco2)N2CCCCC2)c1", "note": "(stereo not drawn)", "AC50": "16.4 µM [falling, single point]"}
{"smiles": "O=C(NCC1CCCO1)c1onc(CSc2ccccc2F)c1C(=O)O", "note": "(stereo not drawn)", "AC50": "11.2 µM [falling, single point]"}
{"smiles": "COc1ccc(-c2cc(=Nc3c(C)n(C)n(-c4ccccc4)c3=O)c3ccccc3o2)cc1", "AC50": "6.31 µM [rising, single point]"}
{"smiles": "CCC(C)(C)NC(=O)CN(Cc1cccs1)C(=O)C(=O)Nc1ccc2c(c1)OCCO2", "AC50": "3.16 µM [falling, full curve]"}
{"smiles": "O=C1[C@@H]2C(Cc3ccc(O)cc3)NC3(C(=O)Nc4ccc(F)cc43)[C@@H]2C(=O)N1c1ccc(F)cc1", "note": "(stereo partly drawn)", "AC50": "13 µM [falling, partial curve]"}
{"smiles": "CCC(C)(C)NC(=O)C(c1cccn1C)N(C(=O)Cn1nnc2ccccc21)c1ccc(OC)cc1OC", "note": "(stereo not drawn)", "AC50": "29.1 µM [falling, single point]"}
{"smiles": "Cc1coc2c1c(C)cc1oc(=O)c(CC(=O)NCC(=O)N[C@H](C(=O)O)C(C)C)c(C)c12", "AC50": "35.5 µM [rising, single point]"}
